Assay results taken from doi:10.1101/133074.
These are yes or no findings as the source states them, for the method shown. Binding seen in cells or lysates may run through a third protein. Some results given as binding are weak or reduced against the parent protein; the word gives no strength.

By UniProt entry, the sequences of proteins in these tests, tags left out.
UniProt P32854: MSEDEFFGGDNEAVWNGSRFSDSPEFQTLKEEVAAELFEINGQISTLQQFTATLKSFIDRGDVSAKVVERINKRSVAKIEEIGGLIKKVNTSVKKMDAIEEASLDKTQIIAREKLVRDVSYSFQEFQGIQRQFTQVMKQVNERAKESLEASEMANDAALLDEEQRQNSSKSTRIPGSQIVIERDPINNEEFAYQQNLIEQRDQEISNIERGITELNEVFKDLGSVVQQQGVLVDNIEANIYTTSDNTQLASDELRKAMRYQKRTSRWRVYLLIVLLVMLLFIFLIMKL
UniProt P20795: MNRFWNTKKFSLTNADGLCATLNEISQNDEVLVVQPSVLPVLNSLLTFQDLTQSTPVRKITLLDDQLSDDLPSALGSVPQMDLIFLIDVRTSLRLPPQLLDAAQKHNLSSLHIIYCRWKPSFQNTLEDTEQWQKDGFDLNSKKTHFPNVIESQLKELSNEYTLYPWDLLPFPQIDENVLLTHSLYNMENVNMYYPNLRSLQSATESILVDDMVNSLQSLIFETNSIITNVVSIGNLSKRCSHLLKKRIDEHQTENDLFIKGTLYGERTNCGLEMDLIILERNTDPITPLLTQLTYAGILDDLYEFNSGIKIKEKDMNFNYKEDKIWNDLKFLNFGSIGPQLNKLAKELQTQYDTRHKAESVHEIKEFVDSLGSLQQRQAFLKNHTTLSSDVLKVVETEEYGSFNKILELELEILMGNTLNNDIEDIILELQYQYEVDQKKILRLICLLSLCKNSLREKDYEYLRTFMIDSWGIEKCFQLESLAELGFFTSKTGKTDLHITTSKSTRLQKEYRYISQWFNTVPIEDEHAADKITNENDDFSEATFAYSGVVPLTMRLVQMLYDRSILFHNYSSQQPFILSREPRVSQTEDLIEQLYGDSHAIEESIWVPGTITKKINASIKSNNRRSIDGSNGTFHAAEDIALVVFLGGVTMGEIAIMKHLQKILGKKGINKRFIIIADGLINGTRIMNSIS
UniProt P33328: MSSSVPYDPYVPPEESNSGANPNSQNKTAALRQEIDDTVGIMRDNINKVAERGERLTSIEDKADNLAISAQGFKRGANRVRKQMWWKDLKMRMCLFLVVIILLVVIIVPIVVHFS

T1: CBP::Vam3 (S. cerevisiae) (UniProt Q12241)
T1 sequence: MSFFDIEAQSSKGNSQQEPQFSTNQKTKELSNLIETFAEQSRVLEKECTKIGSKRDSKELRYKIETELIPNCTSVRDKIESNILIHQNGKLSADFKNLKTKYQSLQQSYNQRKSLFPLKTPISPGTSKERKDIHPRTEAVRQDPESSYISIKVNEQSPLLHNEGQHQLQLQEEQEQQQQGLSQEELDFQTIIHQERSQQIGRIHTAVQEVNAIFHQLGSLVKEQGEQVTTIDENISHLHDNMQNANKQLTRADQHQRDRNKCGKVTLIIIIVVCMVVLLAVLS

B1: Nyv1 (protein, UniProt Q12255 1-253)
chain: MKRFNVSYVEVIKNGETISSCFQPFQKNENYGTITSANEQITPVIFHNLIMDMVLPKVVPIKGNKVTKMSMNLIDGFDCFYSTDDHDPKTVYVCFTLVDMPKILPIRILSGLQEYESNATNELLSSHVGQILDSFHEELVEYRNQTLNSSGNGQSSNGNGQNTISDIGDATEDQIKDVIQIMNDNIDKFLERQERVSLLVDKTSQLNSSSNKFRRKAVNIKEIMWWQKVKNITLLTFTIILFVSAAFMFFYLW

Key:
[1] = molecular target: T1, CBP::Vam3 (S. cerevisiae); assay: pull-down
[2] = molecular target: Pep12 fused to calmodulin-binding protein (CBP::Pep12) (S. cerevisiae) (UniProt P32854); assay: pull-down

Molecule	binding [1]	binding [2]
Vps33 (from UniProt P20795 1-691)	binds	binds
Snc2 (from UniProt P33328 1-115)	no binding	no binding
B1	binds	binds
